This passage reports binding results from article doi:10.1101/2022.09.05.506654.

Amino acid sequences for entries named in this document (tags omitted). Residues count along the entry.
UniProt P02340: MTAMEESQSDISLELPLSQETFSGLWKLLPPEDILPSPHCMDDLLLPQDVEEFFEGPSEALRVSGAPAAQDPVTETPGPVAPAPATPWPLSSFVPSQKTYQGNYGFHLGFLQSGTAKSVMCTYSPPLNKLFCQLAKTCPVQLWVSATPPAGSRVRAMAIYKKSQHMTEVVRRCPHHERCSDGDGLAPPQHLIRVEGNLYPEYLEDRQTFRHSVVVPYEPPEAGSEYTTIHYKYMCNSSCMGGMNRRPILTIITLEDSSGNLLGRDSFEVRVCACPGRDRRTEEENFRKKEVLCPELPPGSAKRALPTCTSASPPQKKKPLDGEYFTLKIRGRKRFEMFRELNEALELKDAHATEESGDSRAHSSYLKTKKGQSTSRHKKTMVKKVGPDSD
UniProt P38647, residues 47-679: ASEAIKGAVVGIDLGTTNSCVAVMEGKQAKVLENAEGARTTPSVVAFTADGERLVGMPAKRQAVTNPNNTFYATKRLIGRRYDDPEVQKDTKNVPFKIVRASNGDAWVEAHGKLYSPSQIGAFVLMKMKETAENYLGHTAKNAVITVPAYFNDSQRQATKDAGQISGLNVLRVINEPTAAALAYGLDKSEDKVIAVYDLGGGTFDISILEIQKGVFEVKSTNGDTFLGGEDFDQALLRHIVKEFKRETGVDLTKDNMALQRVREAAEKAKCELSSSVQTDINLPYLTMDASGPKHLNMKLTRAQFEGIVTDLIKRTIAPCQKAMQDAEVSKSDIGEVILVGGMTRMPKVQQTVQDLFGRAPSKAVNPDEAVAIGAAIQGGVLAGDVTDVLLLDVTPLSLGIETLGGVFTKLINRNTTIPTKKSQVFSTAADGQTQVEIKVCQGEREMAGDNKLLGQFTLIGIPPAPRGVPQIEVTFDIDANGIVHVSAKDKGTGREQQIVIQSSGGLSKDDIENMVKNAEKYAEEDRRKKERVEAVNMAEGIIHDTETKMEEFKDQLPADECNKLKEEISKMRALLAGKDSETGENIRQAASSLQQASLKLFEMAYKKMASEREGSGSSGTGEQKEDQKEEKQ

Experiment [1] concerns the target p53, endogenous in murine endothelial cells (mouse (endogenous in murine endothelial cells)) (UniProt P02340). The experiment is described as follows: co-IP.
For experiment [2], the target named is T1, TERT, endogenous in murine endothelial cells (mouse (endogenous in murine endothelial cells)) (UniProt O70372).
T1 sequence: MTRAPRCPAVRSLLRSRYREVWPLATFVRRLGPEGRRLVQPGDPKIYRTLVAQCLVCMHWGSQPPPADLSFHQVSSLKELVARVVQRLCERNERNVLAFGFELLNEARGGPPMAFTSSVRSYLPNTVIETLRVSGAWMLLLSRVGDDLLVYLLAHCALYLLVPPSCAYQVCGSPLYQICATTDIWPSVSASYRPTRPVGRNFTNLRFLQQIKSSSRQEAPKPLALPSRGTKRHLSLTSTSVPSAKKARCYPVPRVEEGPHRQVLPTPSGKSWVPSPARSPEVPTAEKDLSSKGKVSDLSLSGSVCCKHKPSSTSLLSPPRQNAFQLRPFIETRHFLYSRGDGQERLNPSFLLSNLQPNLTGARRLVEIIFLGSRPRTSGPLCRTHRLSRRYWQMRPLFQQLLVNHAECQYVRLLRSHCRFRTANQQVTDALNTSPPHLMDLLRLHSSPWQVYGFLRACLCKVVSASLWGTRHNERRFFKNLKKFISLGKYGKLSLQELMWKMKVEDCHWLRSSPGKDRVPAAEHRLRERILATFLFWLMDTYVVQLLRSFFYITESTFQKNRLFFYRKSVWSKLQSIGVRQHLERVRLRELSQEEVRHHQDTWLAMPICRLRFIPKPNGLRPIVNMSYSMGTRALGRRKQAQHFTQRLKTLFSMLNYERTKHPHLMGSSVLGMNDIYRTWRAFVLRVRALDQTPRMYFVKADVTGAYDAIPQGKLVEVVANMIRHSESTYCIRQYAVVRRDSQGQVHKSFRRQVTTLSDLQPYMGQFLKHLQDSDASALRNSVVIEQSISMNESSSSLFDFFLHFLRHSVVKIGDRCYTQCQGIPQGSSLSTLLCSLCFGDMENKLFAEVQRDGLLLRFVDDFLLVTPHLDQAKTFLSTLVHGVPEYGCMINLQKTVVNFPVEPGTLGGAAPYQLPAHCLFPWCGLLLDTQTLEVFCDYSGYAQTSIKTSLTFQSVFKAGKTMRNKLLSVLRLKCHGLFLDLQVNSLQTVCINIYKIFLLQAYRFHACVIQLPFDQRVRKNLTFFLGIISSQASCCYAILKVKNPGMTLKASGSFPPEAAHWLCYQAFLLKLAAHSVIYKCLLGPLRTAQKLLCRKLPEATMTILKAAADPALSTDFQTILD
The experiment is described as follows: co-IP.

No constants are given. Whether binding was seen depends on the method and setting. Binding seen in cells or lysates may run through a third protein. Some entries that bind do so weakly or less than the wild type.

Turning to “CSE, endogenous in murine endothelial cells (from UniProt Q8VCN5 1-398) (enzyme)”, the binding entry in experiment [1] is on record as “binds”. Consider “HSP9a, endogenous in murine endothelial cells (from UniProt P38647 47-679)”, for which, in experiment [2], the binding entry is “binds”.
